Among the data in PMC11903765, “ARR1 and AHP interactions in the multi-step phosphorelay system” (Frontiers in Plant Science, 2025) are binding values, retold here.

The target in the experiment is T1, AHP1 (Arabidopsis histidine-containing phosphotransfer protein 1), full length (Arabidopsis thaliana), Q9ZNV9.
T1 chain: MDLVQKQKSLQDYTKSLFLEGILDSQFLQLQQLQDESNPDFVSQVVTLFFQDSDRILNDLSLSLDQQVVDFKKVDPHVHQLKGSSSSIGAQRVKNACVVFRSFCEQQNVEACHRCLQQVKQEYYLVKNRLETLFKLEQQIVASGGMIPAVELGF
Nature of the experiment: crystal structure; complex from mixing 1 ARR1 : 1.5 AHP1, purified by SEC; crystals from Morpheus G11, pH 8.5, 32.5 mg/mL; 2.9 Å; two complexes in the asymmetric unit; both purified. As to conditions: remark: other sources report otherwise. Background: Size exclusion chromatography separates by hydrodynamic size, large species first.

Results are given in words; binding and its absence hold for the method and conditions named. Where a sequence is shown, tags or fusion partners need not be part of it.

B1: AHP1 (Arabidopsis histidine-containing phosphotransfer protein 1), full length (natural protein, Arabidopsis thaliana, UniProt Q9ZNV9 1-154, looked up)
chain: MDLVQKQKSLQDYTKSLFLEGILDSQFLQLQQLQDESNPDFVSQVVTLFFQDSDRILNDLSLSLDQQVVDFKKVDPHVHQLKGSSSSIGAQRVKNACVVFRSFCEQQNVEACHRCLQQVKQEYYLVKNRLETLFKLEQQIVASGGMIPAVELGF
notes: AHP1, Arabidopsis thaliana, UniProt Q9ZNV9, full-length protein cloned from A. thaliana cDNA into pMCSG53; Unphosphorylated; source: E. coli BL21 Gold, purified (Ni-NTA, TEV digestion, second Ni-NTA, SEC)
Take B1: the binding entry is given as “no binding”.
